According to publication doi:10.1101/2025.01.12.632577:
Results are given in words; binding and its absence hold for the method and conditions named. In cells and extracts the contact can be indirect. Sequences can lack the tags named with a protein.

Sequences of proteins named here, by UniProt entry; tags and fusion partners are left off.
UniProt Q9UBN7: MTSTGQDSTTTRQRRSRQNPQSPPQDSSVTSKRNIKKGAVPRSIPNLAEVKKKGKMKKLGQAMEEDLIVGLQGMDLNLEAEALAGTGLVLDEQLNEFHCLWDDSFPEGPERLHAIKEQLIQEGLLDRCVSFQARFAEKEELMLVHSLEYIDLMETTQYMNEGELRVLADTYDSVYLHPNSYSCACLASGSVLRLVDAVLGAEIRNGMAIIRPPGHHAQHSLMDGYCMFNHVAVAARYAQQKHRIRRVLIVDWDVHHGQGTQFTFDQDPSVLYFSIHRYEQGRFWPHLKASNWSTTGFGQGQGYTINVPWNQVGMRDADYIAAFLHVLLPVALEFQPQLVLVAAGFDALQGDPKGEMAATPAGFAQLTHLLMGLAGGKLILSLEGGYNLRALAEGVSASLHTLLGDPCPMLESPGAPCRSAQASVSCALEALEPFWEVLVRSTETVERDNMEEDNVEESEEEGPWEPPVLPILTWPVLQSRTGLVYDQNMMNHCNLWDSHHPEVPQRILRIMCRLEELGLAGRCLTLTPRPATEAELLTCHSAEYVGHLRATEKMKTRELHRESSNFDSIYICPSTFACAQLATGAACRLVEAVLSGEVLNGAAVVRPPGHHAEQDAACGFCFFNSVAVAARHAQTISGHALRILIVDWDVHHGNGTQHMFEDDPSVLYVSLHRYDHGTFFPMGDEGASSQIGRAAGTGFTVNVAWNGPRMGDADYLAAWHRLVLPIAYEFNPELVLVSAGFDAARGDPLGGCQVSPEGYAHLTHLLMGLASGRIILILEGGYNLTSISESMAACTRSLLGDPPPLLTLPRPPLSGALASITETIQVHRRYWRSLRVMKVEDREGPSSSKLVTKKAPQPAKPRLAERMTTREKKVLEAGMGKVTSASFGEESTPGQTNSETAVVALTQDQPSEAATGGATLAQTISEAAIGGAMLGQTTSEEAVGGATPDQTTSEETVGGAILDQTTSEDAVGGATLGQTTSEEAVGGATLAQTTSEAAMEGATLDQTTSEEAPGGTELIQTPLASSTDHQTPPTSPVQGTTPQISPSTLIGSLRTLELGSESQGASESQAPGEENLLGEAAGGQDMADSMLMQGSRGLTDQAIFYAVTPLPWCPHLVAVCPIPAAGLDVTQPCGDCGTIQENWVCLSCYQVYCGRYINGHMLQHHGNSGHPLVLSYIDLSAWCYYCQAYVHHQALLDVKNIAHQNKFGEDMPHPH

Key:
[1] = target: T1, EGFP-SIRT2 (human) (UniProt Q8IXJ6); assay: co-IP
T1 sequence: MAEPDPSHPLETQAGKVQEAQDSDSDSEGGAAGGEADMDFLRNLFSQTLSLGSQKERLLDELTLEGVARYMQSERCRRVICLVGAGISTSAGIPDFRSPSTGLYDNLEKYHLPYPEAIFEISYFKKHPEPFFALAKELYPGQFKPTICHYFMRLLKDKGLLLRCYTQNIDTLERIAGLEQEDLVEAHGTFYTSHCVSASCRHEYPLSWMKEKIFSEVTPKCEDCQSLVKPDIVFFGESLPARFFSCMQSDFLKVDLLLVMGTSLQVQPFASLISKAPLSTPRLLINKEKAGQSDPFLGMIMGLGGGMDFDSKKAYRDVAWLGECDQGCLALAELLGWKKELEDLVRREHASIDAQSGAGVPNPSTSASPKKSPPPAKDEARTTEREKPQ

[2] = target: EGFP-HDAC6 (human) (UniProt Q9UBN7); assay: co-IP

B1: HA-BirA*-JPT2 (protein, UniProt Q9H910-1 1-190)
chain: MFQVPDSEGGRAGSRAMKPPGGESSNLFGSPEEATPSSRPNRMASNIFGPTEEPQNIPKRTNPPGGKGSGIFDESTPVQTRQHLNPPGGKTSDIFGSPVTATSRLAHPNKPKDHVFLCEGEEPKSDLKAARSIPAGAEPGEKGSARKAGPAKEQEPMPTVDSHEPRLGPRPRSHNKVLNPPGGKSSISFY
- binding [1]: no binding
- binding [2]: no binding
